In PubChem BioAssay AID504467 (National Center for Advancing Translational Sciences (NCATS), 2011):
About 7,700 (2.3%) of roughly 330,000 compounds were called active. Inconclusive results, whose numbers are uncertain, are shown with a selection of clear calls. Calls come from the whole dose curve; as a rule, active = well fitted inhibition curve with a large enough effect; inconclusive = small, poorly fitted or top-dose-only effect, or effect the other way; inactive = flat fitted curve, though single readings scatter. Potencies of inconclusive entries are doubtful fits and often do not repeat.
% is set by controls: 0 for no effect and ±100 for the full control effect; potency is the fitted concentration of half-maximal effect.

Assay: qHTS screen for small molecules that inhibit ELG1-dependent DNA repair in human embryonic kidney (HEK293T) cells expressing luciferase-tagged ELG1; note: nearly all actives have a fitted effect of over 55% in size
Conditions: HEK293T ELG1-luciferase reporter, luminescence, 16 h, DNA damage induced by 5-fluorouridine; activity change, negative = inhibition: at 46.1 µM (top of the series)
Summary of the method: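 5-Fluorouridine DNA damage + compound/DMSO, 2,000 cells/well, 16 h, 37 °C/5% CO2. ONE-Glo, 30 min RT, luminescence. Readout = decrease in reporter signal.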
For O=C(NCc1ccco1)c1csc2c1CCCCC2, the “activity change, negative = inhibition” value was inactive: 26.9%.
In the case of CN(Cc1ccccc1)C(=O)c1ccc(NC(=O)Cc2cccc(NC(=O)C3CCN(C(=O)C4CCCCC4)CC3)c2)cc1, the Potency is reported as inconclusive: 9.2 µM [inhibitor, partial curve, poor fit].
In the case of Cc1cc(=O)n2nc(N3CCCC3C(=O)NCCCN3CCCCC3)sc2n1 (stereo not given), the activity change, negative = inhibition is reported as inconclusive: 59.9% [activator].
In the case of COc1ccc2[nH]c3c(=O)n(CCCCC(=O)NCCN4CCCC4)c(=S)[nH]c3c2c1, the “activity change, negative = inhibition” value is reported as inactive: -1.69%.
In the case of O=C(NCCCN1CCOCC1)c1cccc(S(=O)(=O)N2CCc3ccccc3C2)c1, the “activity change, negative = inhibition” value is reported as inactive: -1.13%.
For NC(=O)C1CCN(c2nc(-c3ccc(F)cc3)cs2)CC1, the Potency was inconclusive: 29.1 µM [activator, single point].
With CCn1nc(NC(=O)c2ccccc2)c2cc3cccc(C)c3nc21 the Potency was active: 7.3 µM.
With O=C(O)c1ccccc1-c1ccccc1C(=O)Nc1ccc(-c2nc3cc(Cl)ccc3o2)cc1 the Potency was inconclusive: 20.6 µM [activator, partial curve].
For Cc1ccc(C)c(S(=O)(=O)N2CCN(C(=O)c3cccn3C)CC2)c1, the “activity change, negative = inhibition” value was inactive: 1.82%.
For COCCn1c(-c2ccc(OC)cc2)cnc1SCC(=O)Nc1cccc2ccccc12, the Potency was inconclusive: 3.66 µM [inhibitor, partial curve, poor fit].
In the case of COc1cccc(-n2nc(C(=O)Nc3ccc4c(c3)OCO4)c3ccccc3c2=O)c1, the Potency is reported as inconclusive: 6.51 µM [inhibitor, full curve].
For O=[N+]([O-])c1ccc(-c2nnc(S)n2-c2ccccc2)cc1, the Potency was inconclusive: 16.4 µM [activator, partial curve].
In the case of CCOC(=O)c1c(CN2CCCCC2)oc2ccc(OC)cc12, the Potency is reported as “inactive”.
For COc1ccc(CNC(=O)Nc2ccc(OC)cc2)cc1, the “activity change, negative = inhibition” value was inactive: 13.5%.
With Cc1cccc(NC(=O)CC2C(=O)NCCN2C(=O)Nc2ccc(Cl)cc2)c1 (stereo not given) the Potency was inconclusive: 29.1 µM [inhibitor, single point].
With CCOc1ccc(CC(=O)Nc2ccc(NC(=O)c3ccco3)cc2)cc1OCC the Potency was active: 2.31 µM.
In the case of NC(=O)NC(=O)COC(=O)c1sc2ccccc2c1Cl, the Potency is reported as inconclusive: 9.2 µM [activator, partial curve, poor fit].
For CCCCC(O)(c1ccc(OC)cc1)C(CN1CCOCC1)c1ccccc1 (stereo not given), the Potency was inconclusive: 18.3 µM [inhibitor, partial curve].
For COC(=O)C1CN(C(=O)COc2ccccc2C)c2ccccc2O1 (stereo not given), the Potency was inconclusive: 23.1 µM [activator, partial curve, poor fit].
With S=C1NCN(Cc2ccccc2)CN1C1CCCCC1 the “activity change, negative = inhibition” value was inactive: -7.35%.
With COCCOC(=O)c1c(C)oc2cc(Br)c(OCC(N)=O)cc12 the Potency was inconclusive: 23.1 µM [inhibitor, partial curve, poor fit].
In the case of CCCn1c(=N)n(CC(O)COc2ccc(C)cc2)c2ccccc21 (stereo not given), the Potency is reported as inconclusive: 18.3 µM [inhibitor, single point].
With O=C1CSC(c2ccccc2)N1CC(O)c1ccc([N+](=O)[O-])cc1 (stereo not given) the Potency was inconclusive: 18.3 µM [inhibitor, single point].
With CC(C)c1ccc(/C=N/NC(=O)CN(c2cccc(Cl)c2Cl)S(C)(=O)=O)cc1 the “activity change, negative = inhibition” value was inactive: -9.72%.
With Cc1ccc(S(=O)(=O)c2c(C)nn(C(C)(C)C)c2OC(=O)CC(C)C)cc1 the Potency was inconclusive: 25.9 µM [inhibitor, single point].
In the case of COc1cc(NC(=O)CCS(=O)(=O)c2ccc3c(c2)oc(=O)n3C)cc(OC)c1OC, the Potency is reported as inconclusive: 29.1 µM [activator, partial curve, poor fit].
For Cc1cc(C)c(OCC(=O)Nc2nc(-c3ccccn3)cs2)c(C)c1, the Potency was inconclusive: 23.1 µM [inhibitor, partial curve, poor fit].
In the case of O=C(Nc1ccon1)c1ccc(S(=O)(=O)N2CCOCC2)cc1, the “activity change, negative = inhibition” value is reported as inactive: 1.07%.
For Cc1ccc(C2N(C)c3ccccc3-c3nc4ccccc4n32)o1 (stereo not given), the “activity change, negative = inhibition” value was inactive: 0%.
With O=C(OCC#CCSc1nnc(-c2ccccc2)o1)c1cc2ccccc2o1 the Potency was inconclusive: 16.4 µM [activator, partial curve, poor fit].
With COc1ccc(NC(=O)c2cccc(S(=O)(=O)Nc3ccc(Br)cc3)c2)cn1 the Potency was inconclusive: 25.9 µM [inhibitor, partial curve, poor fit].
In the case of O=C(NCCC1=CCCCC1)C1CCN(S(=O)(=O)N2CCCC2)CC1, the “activity change, negative = inhibition” value is reported as inactive: -4.21%.
For O=c1cc(-c2ccccc2)nc2nc(-c3ccco3)[nH]n12, the Potency was inconclusive: 23.1 µM [activator, partial curve].
In the case of CN1/C(=C/C2CC(=O)N(c3ccc([N+](=O)[O-])cc3)C2=O)C(C)(C)c2ccccc21 (stereo not given), the “activity change, negative = inhibition” value is reported as inactive: 1.09%.
With Cc1nc(N)c(C#N)c(-c2cccnc2)c1C the Potency was inconclusive: 8.2 µM [inhibitor, partial curve, poor fit].
With O=C(Nc1cccc(-c2nc3ncccc3o2)c1)c1cc2ccccc2o1 the Potency was inconclusive: 18.4 µM [inhibitor, single point].
For COc1ccc(/C=C(\NC(=O)c2ccc(OC)cc2)C(=O)Nc2ccccc2C(=O)O)cc1, the “activity change, negative = inhibition” value was inactive: -3%.
With C=CCn1c(COc2ccc(CC)cc2)nnc1SC/C(O)=C(\C#N)c1nc2ccccc2[nH]1 the Potency was inconclusive: 15.8 µM [inhibitor, partial curve, poor fit].
For O=C(NCCc1c[nH]c2ccccc12)OCCCCOC(=O)NCCc1c[nH]c2ccccc12, the Potency was inconclusive: 28.2 µM [inhibitor, single point].
For COC(=O)c1cn(NC(=O)c2cnccn2)c(=O)c2ccccc12, the “activity change, negative = inhibition” value was inactive: -20.5%.
In the case of CCOC(=O)c1ccc(S(=O)(=O)N2CCN(CC(=O)NC(=O)NC3CCCCC3)CC2)cc1, the Potency is reported as inconclusive: 32.6 µM [inhibitor, single point].
In the case of COc1ccc(NC(=O)CSc2nnc(Cc3cccn3C)n2CCc2ccccc2)cc1OC, the “activity change, negative = inhibition” value is reported as inactive: 4.39%.
For CCN(c1ccccc1)S(=O)(=O)c1ccc(Oc2ccccc2C(C)=O)nc1, the Potency was inconclusive: 14.6 µM [inhibitor, partial curve, poor fit].
With COc1ccc(CN(C(=O)CSc2nnc(-c3ccccc3C)o2)c2ccc(F)cc2)cc1 the Potency was inconclusive: 29.1 µM [inhibitor, single point].
With CC(C)C1/C(=N/O)CC(c2ccccc2)NC1c1ccccc1 (stereo not given) the Potency was active: 16.4 µM.
With CCOC(=O)c1cc(-c2ccccc2)sc1NC(=O)C(C)Sc1nnc(N)s1 (stereo not given) the Potency was active: 23.1 µM.
For COc1cc(NC(=O)c2cccs2)c(OC)cc1NC(=O)CCC(=O)Nc1cccc2ncccc12, the Potency was inconclusive: 16.4 µM [inhibitor, partial curve, poor fit].
For Cc1ccc(N(C)C(=O)n2cnc3ccccc32)cc1, the “activity change, negative = inhibition” value was inactive: -10.6%.
In the case of CC(C)(C)c1csc(NC(=O)c2ccc(Br)o2)n1, the Potency is reported as inconclusive: 23.1 µM [activator, single point].
With Cc1nn(C)c(=O)n1-c1ccc(OCc2ccccc2)cc1 the Potency was inconclusive: 16.4 µM [activator, partial curve].
In the case of O=C(NCCN1CCOCC1)c1cc(-c2ccc(Cl)s2)nc2ccccc12, the “activity change, negative = inhibition” value is reported as inactive: 9.07%.
For O=C1C2CC=CCC2C(=O)N1CC(=O)N(Cc1ccccc1)C1CCS(=O)(=O)C1 (stereo not given), the “activity change, negative = inhibition” value was inactive: 2.09%.
In the case of O=C(NCCCn1ccnc1)c1cc2c(s1)CCCCC2, the “activity change, negative = inhibition” value is reported as inactive: 26.9%.
With Cc1ccc(NC(=O)CN(C)C(=O)COC(=O)c2oc3ccccc3c2C)cc1 the Potency was inconclusive: 35.5 µM [inhibitor, single point].
For O=C(N/N=C/c1cccc(Br)c1)c1ccc(Cn2cc(Br)cn2)o1, the Potency was inconclusive: 29.1 µM [inhibitor, single point].
In the case of Cc1cc(C(=O)CSc2nc3ccccc3c(=O)[nH]2)c(C)n1CC1CCCO1 (stereo not given), the “activity change, negative = inhibition” value is reported as inactive: -0.467%.
In the case of CCCCCCNC(=O)CNC(=S)N(Cc1cccs1)C1CCCCC1, the Potency is reported as inconclusive: 16.4 µM [inhibitor, partial curve, poor fit].
With COc1cccc(NC(=O)CN(C)C(=O)C2=COCCO2)c1 the “activity change, negative = inhibition” value was inactive: 13.2%.
With CCOCCCNC(=O)CN1C(=O)c2ccccc2Sc2ncccc21 the Potency was inconclusive: 25.9 µM [activator, partial curve, poor fit].
With c1ccc(CCc2nc(-c3ccccc3)no2)cc1 the Potency was inconclusive: 10 µM [activator, partial curve, poor fit].
For COc1ccc(/C(C)=N/NC(=O)OC(C)(C)C)cc1[N+](=O)[O-], the Potency was inconclusive: 29.1 µM [activator, single point].
With CSC1=C(C#N)C(c2ccc3c(c2)OCO3)C2=C(CCCC2=O)N1 (stereo not given) the Potency was inconclusive: 20.6 µM [inhibitor, single point].
With O=C(N/N=C/c1cc(Br)ccc1O)c1ccccc1Cl the Potency was inconclusive: 16.4 µM [inhibitor, single point].
For COc1ccc(CNc2ncc(-c3cccc([N+](=O)[O-])c3)n2C)c(OC)c1OC, the “activity change, negative = inhibition” value was inactive: -15.2%.
With CCOC(=O)C1(Cc2cccc(F)c2)CCN(Cc2cnn(CC)c2)CC1 the “activity change, negative = inhibition” value was inactive: -5.88%.
For Cc1ccccc1CC1(CO)CCCN(C(=O)c2ccc(F)cc2)C1 (stereo not given), the “activity change, negative = inhibition” value was inactive: -0.0497%.
With COc1ccc(CN2CCN(S(=O)(=O)c3ccc(NC(C)=O)cc3)CC2)cc1OC the “activity change, negative = inhibition” value was inactive: -22.9%.
In the case of C/C=C/COC(=O)c1[nH]c2c(c1C)C(=O)CC(c1ccc(N(C)C)cc1)C2 (stereo not given), the Potency is reported as inconclusive: 29.1 µM [inhibitor, single point].
In the case of COc1ccc(S(=O)(=O)Oc2ccc3c(c2)O/C(=C\c2cccnc2)C3=O)cc1, the Potency is reported as inconclusive: 20.6 µM [inhibitor, single point].
With CC(=O)c1ccc(OCC(=O)OC(C)C(=O)NC2CCCCC2)cc1 (stereo not given) the Potency was inconclusive: 14.6 µM [activator, partial curve, poor fit].
